Laboratory results taken from article PMC12595865.
These are yes or no findings as the source states them, for the method shown. Binding seen in cells or lysates may run through a third protein. Some results given as binding are weak or reduced against the parent protein; the word gives no strength. Where a sequence is shown, tags or fusion partners need not be part of it.

The chains behind the UniProt entries cited, without tags or fusion partners.
UniProt P15090: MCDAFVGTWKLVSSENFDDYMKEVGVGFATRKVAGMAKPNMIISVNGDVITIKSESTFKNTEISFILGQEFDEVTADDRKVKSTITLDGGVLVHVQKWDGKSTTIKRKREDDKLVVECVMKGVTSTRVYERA

Target: Flag-tagged FABP4 (fatty acid-binding protein 4) (UniProt P15090)
Assay: co-IP; HEK293T cells co-transfected with Myc-S100A9 or control vector together with Flag-FABP4; extracts immunoprecipitated with anti-Flag or anti-Myc antibody, Western blot with anti-Myc or anti-Flag; IP buffer (Thermo 87787), protein A/G magnetic beads, 4 °C overnight

binding: binds
B1: Myc-tagged S100A9 (protein, UniProt P06702 1-114)
chain: MTCKMSQLERNIETIINTFHQYSVKLGHPDTLNQGEFKELVRKDLQNFLKKENKNEKVIEHIMEDLDTNADKQLSFEEFIMLMARLTWASHEKMHEGDEGPGHHHKPGLGEGTP
